Literature values in patent US20210319872A1, “DRUG AND DEVICE COMBINATION PRODUCTS WITH IMPROVED SAFETY AND EFFICACY PROFILES” (priority 2016, published 2021).

Test system: subjects
Conditions: 10-, 15-, and 20-mg oral dose, 4 subjects, 24-hour period, pilot study, FIG. 31 inset

For COc1ccc2c3c1O[C@H]1C(=O)CC[C@@]4(O)[C@@H](C2)N(C)CC[C@]314 [oxycodone, reference compound], the “area under the effect curve (AUEC) for pupil response across the 3 doses” value is given as “linearity”.
